Binding data for 1 molecule are collected here from publication PMC10908623, “X-ray structure and characterization of a probiotic Lactobacillus rhamnosus Probio-M9 L-rhamnose isomerase” (Applied Microbiology and Biotechnology, 2024).

These are yes or no findings as the source states them, for the method shown. Some entries that bind do so weakly or less than the wild type.

The assay deals with L-rhamnose isomerase from Lactobacillus rhamnosus Probio-M9 (Lactobacillus rhamnosus Probio-M9). In words: crystal structure; sitting-drop vapor diffusion at 20 C, 0.1 M MES pH 6.5, 15% PEG550MME; LrL-RhI alone and crystals soaked in 30% (w/v) L-rhamnose, D-allulose or D-allose; space group P212121, four molecules in the asymmetric unit; both purified.

B1: L-rhamnose isomerase from Lactobacillus rhamnosus Probio-M9 (enzyme, UniProt A0A171J5T1 1-426, looked up)
chain: MVKPEEVDKAYEVAKQRYAEIGVDTDAAMKELEKVPLSVHCWQGDDIHGFLFPNQELTGGIGVSGNYPGIARTPDELAGDMHEALSLIPGKHRVQLHAIYAVTDKKRDLDTLEPEDFDYWIDWAKQEGVGLDFNGTFFSHPMVKDNMTVSSPDPKVRDFWIRHGKISREISNYIGEKLGSQVVNNFWFPDGFKDNPIDKKTPRLRLLKALDEIIKDPLPEKNTIESFEGKLFGTGIESYTTGSHEFYQNYAISRNKLWTIDAGHFHPTEDVSDKFSAFFPFGKGLFMHVSRPVRWDSDHVVIMDDALIRITRSLVRDGYLDRTHIGLDFFDATINRVAAWVVGARATQKSLLQAMLAPIDQLKKDELNADFTTRLIETEELKSFPFGAVWDKFCQDHNTPVGFDWMNNIHQYEKDVQFKRDAKLVH
notes: L-rhamnose isomerase (putative LrL-RhI) of Lactobacillus rhamnosus Probio-M9, 426 amino acid residues, 48707 Da; also called LrL-RhI; L-RhI; not shown: His-tag, C-terminal, kept
For the molecule B1, the binding entry was “binds”.
